The other results are listed elsewhere or left out.

By UniProt entry, the sequences of proteins in these tests, tags left out. Where a name states a change or a piece, a line headed by the entry shows the natural chain unless it says otherwise.
UniProt P35712: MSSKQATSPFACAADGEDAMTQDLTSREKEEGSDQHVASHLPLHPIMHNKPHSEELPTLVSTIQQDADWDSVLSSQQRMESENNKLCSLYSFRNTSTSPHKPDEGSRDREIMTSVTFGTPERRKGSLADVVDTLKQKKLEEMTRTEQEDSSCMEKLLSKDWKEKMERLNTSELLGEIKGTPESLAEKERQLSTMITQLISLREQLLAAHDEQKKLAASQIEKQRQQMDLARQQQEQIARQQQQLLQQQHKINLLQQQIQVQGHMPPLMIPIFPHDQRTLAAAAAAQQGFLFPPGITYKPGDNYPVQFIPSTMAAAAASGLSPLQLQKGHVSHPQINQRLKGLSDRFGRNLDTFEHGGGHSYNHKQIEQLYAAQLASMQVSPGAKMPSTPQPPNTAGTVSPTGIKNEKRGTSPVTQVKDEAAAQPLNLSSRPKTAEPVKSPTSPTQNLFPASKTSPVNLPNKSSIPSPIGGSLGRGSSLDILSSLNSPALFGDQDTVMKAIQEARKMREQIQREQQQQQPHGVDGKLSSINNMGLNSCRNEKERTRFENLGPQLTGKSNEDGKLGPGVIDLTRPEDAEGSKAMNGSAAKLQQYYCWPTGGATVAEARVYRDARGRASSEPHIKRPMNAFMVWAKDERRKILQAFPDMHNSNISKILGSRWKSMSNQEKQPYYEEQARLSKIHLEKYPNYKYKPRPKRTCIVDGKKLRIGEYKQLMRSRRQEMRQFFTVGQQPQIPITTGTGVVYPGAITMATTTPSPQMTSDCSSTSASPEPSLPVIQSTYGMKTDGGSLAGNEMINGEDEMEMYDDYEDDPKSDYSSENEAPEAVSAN
UniProt Q8TEV9: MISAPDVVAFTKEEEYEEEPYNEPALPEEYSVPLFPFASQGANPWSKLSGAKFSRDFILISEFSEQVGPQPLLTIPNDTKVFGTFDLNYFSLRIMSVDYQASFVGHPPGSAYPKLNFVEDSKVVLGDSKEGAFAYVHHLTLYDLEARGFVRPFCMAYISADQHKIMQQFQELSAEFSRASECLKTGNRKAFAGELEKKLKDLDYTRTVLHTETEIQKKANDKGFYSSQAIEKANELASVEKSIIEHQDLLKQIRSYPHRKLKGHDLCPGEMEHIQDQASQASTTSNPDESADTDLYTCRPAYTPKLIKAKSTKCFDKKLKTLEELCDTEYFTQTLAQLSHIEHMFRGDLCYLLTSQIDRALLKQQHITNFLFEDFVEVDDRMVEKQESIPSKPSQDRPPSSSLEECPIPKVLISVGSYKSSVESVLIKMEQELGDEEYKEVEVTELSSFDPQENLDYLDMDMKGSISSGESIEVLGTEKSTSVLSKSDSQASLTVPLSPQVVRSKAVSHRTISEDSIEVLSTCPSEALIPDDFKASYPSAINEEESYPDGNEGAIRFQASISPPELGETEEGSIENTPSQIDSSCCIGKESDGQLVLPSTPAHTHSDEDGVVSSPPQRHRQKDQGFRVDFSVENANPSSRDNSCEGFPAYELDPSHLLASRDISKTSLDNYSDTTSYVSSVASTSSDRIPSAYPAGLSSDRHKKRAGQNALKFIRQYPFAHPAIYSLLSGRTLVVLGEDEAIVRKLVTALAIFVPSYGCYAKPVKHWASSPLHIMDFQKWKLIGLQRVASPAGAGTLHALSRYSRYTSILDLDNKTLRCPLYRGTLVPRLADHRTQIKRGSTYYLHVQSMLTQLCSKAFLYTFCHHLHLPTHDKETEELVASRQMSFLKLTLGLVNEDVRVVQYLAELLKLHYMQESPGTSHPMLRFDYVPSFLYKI
UniProt Q6GMV2: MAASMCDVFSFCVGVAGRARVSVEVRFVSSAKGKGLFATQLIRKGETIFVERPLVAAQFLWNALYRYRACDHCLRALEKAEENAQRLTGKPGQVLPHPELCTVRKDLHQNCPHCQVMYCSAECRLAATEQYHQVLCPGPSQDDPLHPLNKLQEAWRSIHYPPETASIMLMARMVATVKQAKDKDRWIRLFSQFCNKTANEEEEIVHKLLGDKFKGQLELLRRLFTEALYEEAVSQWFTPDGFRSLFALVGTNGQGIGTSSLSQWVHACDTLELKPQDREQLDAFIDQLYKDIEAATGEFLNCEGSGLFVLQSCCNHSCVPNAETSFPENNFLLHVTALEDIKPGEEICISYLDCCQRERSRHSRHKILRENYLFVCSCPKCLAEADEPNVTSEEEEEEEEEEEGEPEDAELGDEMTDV
UniProt P09661: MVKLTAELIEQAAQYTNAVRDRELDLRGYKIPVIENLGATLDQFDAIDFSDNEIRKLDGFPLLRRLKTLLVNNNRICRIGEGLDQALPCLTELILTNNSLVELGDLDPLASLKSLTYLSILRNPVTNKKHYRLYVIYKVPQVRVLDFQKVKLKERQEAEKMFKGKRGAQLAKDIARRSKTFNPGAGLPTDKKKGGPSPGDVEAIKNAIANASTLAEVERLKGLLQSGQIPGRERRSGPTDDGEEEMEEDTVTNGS
UniProt P62306, whole entry, looked up: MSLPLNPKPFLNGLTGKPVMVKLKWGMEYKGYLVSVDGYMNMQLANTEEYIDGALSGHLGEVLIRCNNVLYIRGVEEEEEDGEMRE
UniProt P08579, whole entry, looked up: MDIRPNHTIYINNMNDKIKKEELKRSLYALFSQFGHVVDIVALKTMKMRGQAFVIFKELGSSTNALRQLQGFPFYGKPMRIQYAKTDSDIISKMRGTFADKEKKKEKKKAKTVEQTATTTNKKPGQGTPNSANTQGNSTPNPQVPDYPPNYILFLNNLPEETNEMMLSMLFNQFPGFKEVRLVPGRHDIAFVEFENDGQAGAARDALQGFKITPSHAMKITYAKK
UniProt P55769: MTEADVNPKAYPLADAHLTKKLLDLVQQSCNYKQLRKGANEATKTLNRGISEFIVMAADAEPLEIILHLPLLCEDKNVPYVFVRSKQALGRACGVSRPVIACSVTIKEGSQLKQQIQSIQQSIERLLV
UniProt O75391: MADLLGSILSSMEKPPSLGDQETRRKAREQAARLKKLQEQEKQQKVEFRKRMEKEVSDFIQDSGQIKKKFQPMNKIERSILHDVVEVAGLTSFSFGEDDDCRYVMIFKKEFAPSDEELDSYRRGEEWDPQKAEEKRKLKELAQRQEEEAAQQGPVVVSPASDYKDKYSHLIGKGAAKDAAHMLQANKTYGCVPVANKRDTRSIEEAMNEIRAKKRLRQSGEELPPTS
UniProt P53814: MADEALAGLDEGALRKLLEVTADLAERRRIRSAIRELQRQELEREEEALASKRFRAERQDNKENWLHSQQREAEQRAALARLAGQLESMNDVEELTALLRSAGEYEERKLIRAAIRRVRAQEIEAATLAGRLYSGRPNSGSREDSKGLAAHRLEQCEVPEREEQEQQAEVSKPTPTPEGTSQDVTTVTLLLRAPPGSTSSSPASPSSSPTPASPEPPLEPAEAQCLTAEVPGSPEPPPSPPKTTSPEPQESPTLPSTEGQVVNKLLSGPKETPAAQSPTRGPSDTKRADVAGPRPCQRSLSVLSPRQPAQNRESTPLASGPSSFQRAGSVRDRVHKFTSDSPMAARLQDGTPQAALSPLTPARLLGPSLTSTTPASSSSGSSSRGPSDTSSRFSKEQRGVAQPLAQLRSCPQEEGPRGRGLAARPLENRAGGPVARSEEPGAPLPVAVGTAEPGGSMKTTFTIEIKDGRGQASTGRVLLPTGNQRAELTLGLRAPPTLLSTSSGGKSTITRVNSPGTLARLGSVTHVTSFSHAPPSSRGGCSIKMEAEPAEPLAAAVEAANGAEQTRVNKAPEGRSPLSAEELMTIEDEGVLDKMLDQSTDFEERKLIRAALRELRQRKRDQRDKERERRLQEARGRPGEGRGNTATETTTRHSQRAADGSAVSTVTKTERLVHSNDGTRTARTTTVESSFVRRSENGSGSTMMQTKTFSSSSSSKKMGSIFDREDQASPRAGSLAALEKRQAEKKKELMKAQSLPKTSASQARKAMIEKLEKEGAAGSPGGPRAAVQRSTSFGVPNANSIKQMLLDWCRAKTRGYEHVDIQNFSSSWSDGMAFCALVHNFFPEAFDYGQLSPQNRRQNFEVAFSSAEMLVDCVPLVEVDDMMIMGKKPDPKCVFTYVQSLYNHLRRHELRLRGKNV
UniProt Q8NDV3: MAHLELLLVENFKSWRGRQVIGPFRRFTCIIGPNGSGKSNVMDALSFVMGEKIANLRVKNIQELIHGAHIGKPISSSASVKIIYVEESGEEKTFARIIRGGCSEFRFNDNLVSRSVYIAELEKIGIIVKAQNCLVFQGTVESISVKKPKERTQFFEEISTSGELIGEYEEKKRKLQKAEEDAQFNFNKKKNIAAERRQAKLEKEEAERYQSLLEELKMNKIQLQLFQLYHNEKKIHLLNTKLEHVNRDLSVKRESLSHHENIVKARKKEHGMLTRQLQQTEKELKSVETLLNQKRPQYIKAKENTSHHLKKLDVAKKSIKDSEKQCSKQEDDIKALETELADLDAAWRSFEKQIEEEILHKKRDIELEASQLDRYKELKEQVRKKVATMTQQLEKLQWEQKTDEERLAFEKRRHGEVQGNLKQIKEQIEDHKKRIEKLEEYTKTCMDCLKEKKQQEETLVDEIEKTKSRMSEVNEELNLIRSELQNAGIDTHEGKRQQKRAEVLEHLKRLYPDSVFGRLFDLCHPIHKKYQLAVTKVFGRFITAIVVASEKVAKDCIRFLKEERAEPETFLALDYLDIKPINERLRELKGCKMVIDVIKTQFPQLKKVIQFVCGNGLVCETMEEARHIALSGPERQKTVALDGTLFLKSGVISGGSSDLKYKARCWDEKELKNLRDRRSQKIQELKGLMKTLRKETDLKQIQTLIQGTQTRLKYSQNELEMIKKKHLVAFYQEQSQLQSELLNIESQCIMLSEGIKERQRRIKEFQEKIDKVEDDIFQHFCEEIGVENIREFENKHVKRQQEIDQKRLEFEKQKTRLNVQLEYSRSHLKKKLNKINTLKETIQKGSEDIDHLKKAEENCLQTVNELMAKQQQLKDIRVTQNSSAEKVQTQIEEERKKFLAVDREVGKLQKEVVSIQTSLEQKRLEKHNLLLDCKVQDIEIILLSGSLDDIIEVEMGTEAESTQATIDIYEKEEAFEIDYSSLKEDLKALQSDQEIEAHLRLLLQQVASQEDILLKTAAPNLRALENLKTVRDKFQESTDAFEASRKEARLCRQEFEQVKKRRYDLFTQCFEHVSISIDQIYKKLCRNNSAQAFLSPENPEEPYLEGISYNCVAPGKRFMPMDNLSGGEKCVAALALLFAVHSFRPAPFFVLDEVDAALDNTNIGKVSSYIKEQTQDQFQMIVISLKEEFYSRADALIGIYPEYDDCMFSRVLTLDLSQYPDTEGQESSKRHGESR
UniProt P04179: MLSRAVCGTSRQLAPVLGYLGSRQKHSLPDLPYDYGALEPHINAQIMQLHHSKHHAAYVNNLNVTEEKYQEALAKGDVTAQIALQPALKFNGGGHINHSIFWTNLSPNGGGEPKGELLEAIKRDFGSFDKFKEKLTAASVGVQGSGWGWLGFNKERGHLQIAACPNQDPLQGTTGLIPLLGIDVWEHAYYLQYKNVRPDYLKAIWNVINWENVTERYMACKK
UniProt Q9NRH2: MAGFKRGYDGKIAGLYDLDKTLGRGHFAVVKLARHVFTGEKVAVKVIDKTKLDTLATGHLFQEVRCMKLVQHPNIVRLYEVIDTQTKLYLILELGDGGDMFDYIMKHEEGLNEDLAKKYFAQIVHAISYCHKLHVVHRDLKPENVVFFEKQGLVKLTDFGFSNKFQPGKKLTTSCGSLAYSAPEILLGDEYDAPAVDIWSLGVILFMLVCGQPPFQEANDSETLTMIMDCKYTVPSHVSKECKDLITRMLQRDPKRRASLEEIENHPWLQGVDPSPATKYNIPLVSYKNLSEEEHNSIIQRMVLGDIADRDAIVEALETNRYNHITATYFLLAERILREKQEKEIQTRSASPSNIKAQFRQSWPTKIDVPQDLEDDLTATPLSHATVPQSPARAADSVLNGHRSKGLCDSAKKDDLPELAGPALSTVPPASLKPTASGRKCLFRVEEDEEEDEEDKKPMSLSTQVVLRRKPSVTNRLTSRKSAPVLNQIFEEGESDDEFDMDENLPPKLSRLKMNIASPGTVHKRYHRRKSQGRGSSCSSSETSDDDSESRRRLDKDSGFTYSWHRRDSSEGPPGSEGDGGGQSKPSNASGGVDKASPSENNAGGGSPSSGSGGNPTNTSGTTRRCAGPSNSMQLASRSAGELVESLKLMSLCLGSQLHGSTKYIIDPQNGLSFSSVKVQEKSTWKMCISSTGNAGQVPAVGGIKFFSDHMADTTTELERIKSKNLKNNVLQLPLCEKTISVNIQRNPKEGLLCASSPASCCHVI
UniProt Q9Y5W9: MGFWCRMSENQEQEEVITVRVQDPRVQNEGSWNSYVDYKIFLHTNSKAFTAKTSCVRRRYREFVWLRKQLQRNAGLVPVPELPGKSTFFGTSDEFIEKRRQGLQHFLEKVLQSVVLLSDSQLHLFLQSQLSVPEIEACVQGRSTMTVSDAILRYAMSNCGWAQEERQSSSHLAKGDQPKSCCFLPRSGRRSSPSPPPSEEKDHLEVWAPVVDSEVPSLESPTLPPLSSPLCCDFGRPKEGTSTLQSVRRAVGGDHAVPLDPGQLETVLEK

Compound in the assay: NCC(=O)Nc1ccc(-n2nc(C(F)(F)F)cc2-c2ccc3c(ccc4ccccc43)c2)cc1
The experiment in a line: log2 fold change, soluble protein after heating vs DMSO (PISA); higher = thermal stabilisation; K562 lysate, 10 uM; active = over 0.2 and 3.5 SD of the protein, either way, in both replicates (recomputed). The method in brief: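 Soluble protein was defined as the supernatant remaining after 21,000xg for 90 min, following pooling of heated aliquots and adjustment to 0.5% NP-40 at 4°C. Before that, crude K562 extract at 1 mg/mL protein in PBS pH 7.4 with 1 mM MgCl2 was treated with 10 μM compound for 30 min and heated for 3 min across 48°C-58°C. Quantification used TMTpro 16plex LC-MS/MS with channel sums equalised, and values are log-two fold changes in thermal stability relative to solvent controls from duplicates.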
On to SOX6 (UniProt P35712), for which the log2 fold change was inactive: -0.287.

With SMCR8 (UniProt Q8TEV9), the log2 fold change was inactive: -0.076.

On to SMYD5 (UniProt Q6GMV2), for which the log2 fold change was inactive: 0.035.

On to SNRPA1 (UniProt P09661), for which the log2 fold change was inactive: 0.009.

As to SMU1 (UniProt Q2TAY7), the log2 fold change was inactive: -0.061.

As for SOCS2 (UniProt O14508), the log2 fold change was inactive: 0.046.

In the case of SMARCA5 (UniProt O60264), the log2 fold change is inactive: 0.011.

Regarding SNRPF (UniProt P62306), the log2 fold change is inactive: -0.019.

Regarding SNRPB2 (UniProt P08579), the log2 fold change was inactive: -0.014.

Turning to SNU13 (UniProt P55769), the log2 fold change was inactive: -0.026.

Take SNRPN isoform 2 (UniProt P63162): the log2 fold change was inactive: -0.177.

SPAG7 (UniProt O75391): the log2 fold change is inactive: -0.031.

For the target SNAP29 (UniProt O95721), the log2 fold change is inactive: -0.001.

Turning to SMYD3 (UniProt Q9H7B4), the log2 fold change is inactive: 0.044.

For the target SNRNP40 (UniProt Q96DI7), the log2 fold change was inactive: 0.01.

Take SMTN isoform 6 (UniProt P53814): the log2 fold change is inactive: -0.021.

With SMC1B isoform 3 (UniProt Q8NDV3), the log2 fold change is inactive: -0.063.

For SOD2 (UniProt P04179), the log2 fold change was inactive: 0.016.

Regarding SNRK (UniProt Q9NRH2), the log2 fold change is inactive: -0.021.

For SNX11 (UniProt Q9Y5W9), the log2 fold change was inactive: -0.013.

SOGA1 isoform 2 (UniProt O94964): the log2 fold change is inactive: -0.015.

Turning to SNX1 (UniProt Q13596), the log2 fold change is inactive: 0.008.

As for SMARCA4 (UniProt P51532), the log2 fold change is inactive: 0.015.

(Values after the supplement of paper PMC10849652.)
